According to US20090010927A1:
Results are given in words; binding and its absence hold for the method and conditions named. Binding seen in cells or lysates may run through a third protein.

Target: recombinant GST-14-3-3β/ζ (bead-bound)
Experiment: pull-down with bead-bound GST-14-3-3 β/ζ from lysates of MK2 shRNA p53-/- MEFs treated with camptothecin or doxorubicin for eight hours, immunoblot (FIG. 31C)

B1: endogenous Cdc25B in lysates of MK2 depleted (MK2 shRNA) p53-/- MEFs treated with camptothecin or doxorubicin (enzyme, mouse, UniProt P30306 1-576, looked up)
chain: MEVPLQKSAPGSALSPARVLGGIQRPRHLSVFEFESDGFLGSPEPTASSSPVTTLTQTMHNLAGLGSEPPKAQVGSLSFQNRLADLSLSRRTSECSLSSESSESSDAGLCMDSPSPVDPQMAERTFEQAIQAASRVIQNEQFTIKRFRSLPVRLLEHSPVLQSITNSRALDSWRKTEAGYRAAANSPGEDKENDGYIFKMPQELPHSSSAQALAEWVSRRQAFTQRPSSAPDLMCLTTEWKMEVEELSPVAQSSSLTPVERASEEDDGFVDILESDLKDDEKVPAGMENLISAPLVKKLDKEEEQDLIMFSKCQRLFRSPSMPCSVIRPILKRLERPQDRDVPVQSKRRKSVTPLEEQQLEEPKARVFRSKSLCHEIENILDSDHRGLIGDYSKAFLLQTVDGKHQDLKYISPETMVALLTGKFSNIVEKFVIVDCRYPYEYEGGHIKNAVNLPLERDAETFLLQRPIMPCSLDKRIILIFHCEFSSERGPRMCRFIRERDRAANDYPSLYYPEMYILKGGYKEFFPQHPNFCEPQDYRPMNHEAFRDELRNFRLKTRSWAGERSRRELCSRLQDQ
modifications: lacks the MK2 dependent 14-3-3 binding site; state not measured directly
In the case of B1, the binding is reported as “no binding”.
